{
  "source": "PubChem BioAssay (Tox21)",
  "note": "Inconclusive means that the source gave no clear call. Such entries were picked first, then a sample of the others. Where the call is inconclusive, the potency comes from a doubtful curve fit. Activity calls are given as the source filed them. The call rests on the fitted dose curve; in most records, active means well fitted cell-killing curve with a large enough effect in the repeat runs; inconclusive means weak or mixed curves, or effect the other way; inactive means flat fitted curve, though single readings scatter. Potency means the concentration at half of the fitted maximal effect.",
  "data": [
    {"experiment": "cAMP Responsive Elements (CRE) small molecule agonists, cell-based qHTS assay: qHTS cell viability counter screen (AID 2060914);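 further: viability read after 3 h of compound exposure; nearly all actives have a fitted effect of over 50% in size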", "details": "CRE-bla HEK293T viability, CellTiter-Glo luminescence, 5 h; series mostly up to 92.4 µM", "how_it_was_run": "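CRE-bla HEK 293T cells, plated 18 h at 37 °C, were exposed to compounds for 3 h at 37 °C/5% CO2. Viability was then measured in the same wells by CellTiter-Glo luminescence after 30 min at room temperature.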", "values": [
      {"compound": "C=CC[N+](C)(C)CC=C", "Potency": "inactive"},
      {"compound": "O=C(O)/C=C(\\CC(=O)O)C(=O)O", "Potency": "inactive"},
      {"compound": "N#C[C@@H]1CC(F)(F)CN1C(=O)CNC1CC2CCC(C1)N2c1ncccn1", "note": "(some centres undefined)", "Potency": "inconclusive: 27.3 µM [cytotoxic, single point]"},
      {"compound": "COC(C(=O)O)c1ccccc1", "note": "(centres undefined)", "Potency": "inconclusive: 27.3 µM [cytotoxic, single point]"},
      {"compound": "Nc1ccc(C(=O)Oc2ccccc2)c(O)c1", "Potency": "inconclusive: 7.5 µM [cytotoxic, single point]"},
      {"compound": "Nc1c[n+](N2CCOCC2)no1", "Potency": "inactive"},
      {"compound": "NNc1ccc(C(=O)O)cc1", "Potency": "inactive"},
      {"compound": "CCC[C@H](N[C@@H](C)C(=O)N1[C@H](C(=O)O)C[C@@H]2CCCC[C@@H]21)C(=O)OCC", "Potency": "inconclusive: 1.46 µM [cytotoxic, single point]"},
      {"compound": "C[C@]12CC[C@@H]3c4ccc(O)cc4CC[C@H]3[C@@H]1CC[C@@H]2O", "Potency": "inactive"},
      {"compound": "S=C1NC=NC2N=CNC12", "note": "(centres undefined)", "Potency": "inconclusive: 3.06 µM [cytotoxic, full curve]"},
      {"compound": "CCN(CCC#N)c1ccc(N=Nc2c(Cl)cc([N+](=O)[O-])cc2Cl)cc1", "Potency": "inconclusive: 24.3 µM [cytotoxic, full curve, poor fit]"},
      {"compound": "CCOc1ccccc1O[C@H](c1ccccc1)[C@H]1CNCCO1", "Potency": "inactive"},
      {"compound": "O=c1[nH]sc2cc(Cl)ccc12", "Potency": "inconclusive: 0.298 µM [cytotoxic, single point]"},
      {"compound": "NCCCN(CCO)CCO", "Potency": "inconclusive: 77 µM [cytotoxic, partial curve, poor fit]"},
      {"compound": "O=C1Cc2cc(Cl)ccc2N1", "Potency": "inconclusive: 33.5 µM [cytotoxic, single point]"},
      {"compound": "COC(=O)/C=C\\C(=O)OC", "Potency": "inactive"},
      {"compound": "O=C(C1CCCCC1)N1CC(=O)N2CCCc3ccccc3C2C1", "note": "(centres undefined)", "Potency": "inconclusive: 13.3 µM [cytotoxic, single point]"},
      {"compound": "O=C1OC2(c3ccccc31)c1cc(I)c(O)c(I)c1Oc1c2cc(I)c(O)c1I", "Potency": "inconclusive: 1.48 µM [cytotoxic, single point]"},
      {"compound": "COc1ccccc1O", "Potency": "inconclusive: 21.8 µM [cytotoxic, partial curve, poor fit]"},
      {"compound": "CC(=O)C(=O)O", "Potency": "inconclusive: 6.86 µM [cytotoxic, single point]"},
      {"compound": "CC(=O)O[C@]1(C(C)=O)CC[C@H]2[C@@H]3C=C(Cl)C4=CC(=O)CC[C@]4(C)[C@H]3CC[C@@]21C", "Potency": "inconclusive: 54.4 µM [cytotoxic, partial curve]"},
      {"compound": "O=c1[nH]c(=O)n([C@H]2C[C@H](O)[C@@H](CO)O2)cc1F", "Potency": "inconclusive: 23.7 µM [cytotoxic, partial curve]"},
      {"compound": "OCC(O)c1ccccc1", "note": "(centres undefined)", "Potency": "inconclusive: 6.11 µM [cytotoxic, single point]"},
      {"compound": "O=C(OC(=O)c1ccccc1)c1ccccc1", "Potency": "inactive"},
      {"compound": "Nc1ccccc1[N+](=O)[O-]", "Potency": "inconclusive: 27.5 µM [cytotoxic, partial curve, poor fit]"},
      {"compound": "CC1=C(CC(=O)O)c2cc(F)ccc2/C1=C\\c1ccc(S(C)=O)cc1", "note": "(centres undefined)", "Potency": "inconclusive: 5.45 µM [cytotoxic, full curve, poor fit]"},
      {"compound": "CN(C)CCC=C1c2ccccc2C=Cc2ccccc21", "Potency": "inactive"},
      {"compound": "O=C(O)c1[nH]n(-c2ccc(S(=O)(=O)O)cc2)c(=O)c1N=Nc1ccc(S(=O)(=O)O)cc1", "Potency": "inconclusive: 0.203 µM [cytotoxic, single point]"},
      {"compound": "CC(=O)CCC(=O)O", "Potency": "inactive"},
      {"compound": "O=C(Nc1ccccc1)OCC(CN1CCCCC1)OC(=O)Nc1ccccc1", "note": "(centres undefined)", "Potency": "inconclusive: 13.3 µM [cytotoxic, single point]"},
      {"compound": "CO/N=C1\\CN(c2nc3c(cc2F)c(=O)c(C(=O)O)cn3C2CC2)CC1CN", "note": "(centres undefined)", "Potency": "inconclusive: 13.3 µM [cytotoxic, partial curve, poor fit]"},
      {"compound": "Cc1cc(O)c2c(c1)C(=O)c1cc(O)cc(O)c1C2=O", "Potency": "inconclusive: 0.299 µM [cytotoxic, single point]"},
      {"compound": "Nc1ccc(N)c2c1C(=O)c1ccccc1C2=O", "Potency": "inconclusive: 0.243 µM [cytotoxic, single point]"},
      {"compound": "CCCCCCS", "Potency": "inactive"},
      {"compound": "C=C(c1ccc(C(=O)O)cc1)c1cc2c(cc1C)C(C)(C)CCC2(C)C", "Potency": "inconclusive: 33.5 µM [cytotoxic, partial curve, poor fit]"},
      {"compound": "CCOC(=O)C1=C[C@]2(CC)CCCN3CCc4c(n1c1ccccc41)[C@@H]32", "Potency": "inactive"},
      {"compound": "C=CC(=O)NC(C)(C)C", "Potency": "inactive"},
      {"compound": "Cc1cccc(Nc2cc(Cl)nc(SCC(=O)O)n2)c1C", "Potency": "inconclusive: 33.5 µM [cytotoxic, partial curve, poor fit]"},
      {"compound": "Cc1nc(-c2ccc3c(c2)CCN(CCC2CCC(NC(=O)/C=C/c4ccc(F)cc4)CC2)CC3)no1", "note": "(centres undefined)", "Potency": "inconclusive: 0.109 µM [cytotoxic, single point]"}
    ]}
  ]
}
